Publication PMC12915160
Results are given in words; binding and its absence hold for the method and conditions named. Binding seen in cells or lysates may run through a third protein. Here binding means that the protein was enriched with, or labelled near, the bait; the list need not be complete.

Protein sequences, listed by entry. Tags and fused reporters are not part of them.
UniProt Q27991: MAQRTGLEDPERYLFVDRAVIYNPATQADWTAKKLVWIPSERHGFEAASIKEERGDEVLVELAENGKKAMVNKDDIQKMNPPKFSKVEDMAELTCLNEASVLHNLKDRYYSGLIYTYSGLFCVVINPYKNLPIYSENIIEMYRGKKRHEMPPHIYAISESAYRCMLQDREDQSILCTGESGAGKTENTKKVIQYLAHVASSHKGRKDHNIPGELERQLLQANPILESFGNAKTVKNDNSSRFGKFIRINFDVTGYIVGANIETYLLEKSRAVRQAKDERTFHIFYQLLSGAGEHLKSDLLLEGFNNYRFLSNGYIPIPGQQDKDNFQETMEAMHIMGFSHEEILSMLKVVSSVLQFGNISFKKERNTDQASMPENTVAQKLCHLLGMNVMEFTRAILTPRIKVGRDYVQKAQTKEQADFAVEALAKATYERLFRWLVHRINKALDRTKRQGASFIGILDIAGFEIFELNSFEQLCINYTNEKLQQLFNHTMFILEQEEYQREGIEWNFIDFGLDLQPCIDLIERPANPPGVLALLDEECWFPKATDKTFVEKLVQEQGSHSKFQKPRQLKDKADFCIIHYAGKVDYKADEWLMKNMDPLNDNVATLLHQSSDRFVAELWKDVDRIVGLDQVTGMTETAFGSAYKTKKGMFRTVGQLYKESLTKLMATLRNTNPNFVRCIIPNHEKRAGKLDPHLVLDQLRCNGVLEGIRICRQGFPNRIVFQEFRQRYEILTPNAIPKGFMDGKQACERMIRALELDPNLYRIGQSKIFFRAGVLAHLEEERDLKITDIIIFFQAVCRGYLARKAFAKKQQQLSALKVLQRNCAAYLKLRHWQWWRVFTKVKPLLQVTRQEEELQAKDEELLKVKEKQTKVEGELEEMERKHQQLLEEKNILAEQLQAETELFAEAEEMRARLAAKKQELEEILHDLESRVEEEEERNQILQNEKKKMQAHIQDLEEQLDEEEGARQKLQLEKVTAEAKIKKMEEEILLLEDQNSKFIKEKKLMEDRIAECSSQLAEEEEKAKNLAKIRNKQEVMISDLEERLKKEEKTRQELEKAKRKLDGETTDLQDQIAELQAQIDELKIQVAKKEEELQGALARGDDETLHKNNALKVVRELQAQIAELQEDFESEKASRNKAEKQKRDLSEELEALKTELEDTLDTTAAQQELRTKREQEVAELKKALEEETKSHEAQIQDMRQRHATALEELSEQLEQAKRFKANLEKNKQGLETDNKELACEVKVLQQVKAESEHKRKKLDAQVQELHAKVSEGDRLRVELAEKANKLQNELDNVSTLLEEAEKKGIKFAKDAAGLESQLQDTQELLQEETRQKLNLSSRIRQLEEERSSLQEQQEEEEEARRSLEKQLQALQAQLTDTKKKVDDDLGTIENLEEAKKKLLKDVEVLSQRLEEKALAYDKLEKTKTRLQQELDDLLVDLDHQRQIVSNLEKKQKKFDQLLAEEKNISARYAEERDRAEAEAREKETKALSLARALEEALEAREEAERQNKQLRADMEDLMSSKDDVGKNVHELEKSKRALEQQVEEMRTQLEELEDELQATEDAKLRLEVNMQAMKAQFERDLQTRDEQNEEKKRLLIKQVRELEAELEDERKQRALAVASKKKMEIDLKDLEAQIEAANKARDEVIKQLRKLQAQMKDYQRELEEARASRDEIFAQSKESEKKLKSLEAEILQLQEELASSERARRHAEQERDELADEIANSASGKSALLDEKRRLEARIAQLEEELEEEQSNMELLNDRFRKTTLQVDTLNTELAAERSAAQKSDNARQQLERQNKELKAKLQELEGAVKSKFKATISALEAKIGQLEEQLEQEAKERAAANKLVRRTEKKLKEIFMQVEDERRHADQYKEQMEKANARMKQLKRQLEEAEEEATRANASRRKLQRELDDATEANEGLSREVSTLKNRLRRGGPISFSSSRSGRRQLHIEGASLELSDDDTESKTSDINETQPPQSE
UniProt P85100: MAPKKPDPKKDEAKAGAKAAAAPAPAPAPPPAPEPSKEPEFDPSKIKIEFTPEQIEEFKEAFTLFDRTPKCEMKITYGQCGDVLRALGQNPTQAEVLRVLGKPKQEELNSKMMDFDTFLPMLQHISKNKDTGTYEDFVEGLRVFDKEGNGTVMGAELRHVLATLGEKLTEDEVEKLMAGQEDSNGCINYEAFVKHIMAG

Biological target: MYH10 (non‐muscle myosin IIB) (bovine (endogenous in bovine MuSCs)) (UniProt Q27991)
Test: affinity purification with mass spectrometry; Co-IP targeting MYH10 followed by mass spectrometry; 180 interacting proteins identified

MYL3 (myosin light chain family member) (from UniProt P85100 1-199)
binding: binds
